No constants are given. Whether binding was seen depends on the method and setting. For part of these data: In cells and extracts the contact can be indirect. Some entries that bind do so weakly or less than the wild type.

Protein sequences, listed by entry. Tags and fused reporters are not part of them. Lines headed by an entry give the natural chain unless they say otherwise; changes in a name come on top. Chains listed by the source or under a name are the forms on record and can include a tag or linker.
AMBRA1 full length (human, wild type) (Q9C0C7, form named): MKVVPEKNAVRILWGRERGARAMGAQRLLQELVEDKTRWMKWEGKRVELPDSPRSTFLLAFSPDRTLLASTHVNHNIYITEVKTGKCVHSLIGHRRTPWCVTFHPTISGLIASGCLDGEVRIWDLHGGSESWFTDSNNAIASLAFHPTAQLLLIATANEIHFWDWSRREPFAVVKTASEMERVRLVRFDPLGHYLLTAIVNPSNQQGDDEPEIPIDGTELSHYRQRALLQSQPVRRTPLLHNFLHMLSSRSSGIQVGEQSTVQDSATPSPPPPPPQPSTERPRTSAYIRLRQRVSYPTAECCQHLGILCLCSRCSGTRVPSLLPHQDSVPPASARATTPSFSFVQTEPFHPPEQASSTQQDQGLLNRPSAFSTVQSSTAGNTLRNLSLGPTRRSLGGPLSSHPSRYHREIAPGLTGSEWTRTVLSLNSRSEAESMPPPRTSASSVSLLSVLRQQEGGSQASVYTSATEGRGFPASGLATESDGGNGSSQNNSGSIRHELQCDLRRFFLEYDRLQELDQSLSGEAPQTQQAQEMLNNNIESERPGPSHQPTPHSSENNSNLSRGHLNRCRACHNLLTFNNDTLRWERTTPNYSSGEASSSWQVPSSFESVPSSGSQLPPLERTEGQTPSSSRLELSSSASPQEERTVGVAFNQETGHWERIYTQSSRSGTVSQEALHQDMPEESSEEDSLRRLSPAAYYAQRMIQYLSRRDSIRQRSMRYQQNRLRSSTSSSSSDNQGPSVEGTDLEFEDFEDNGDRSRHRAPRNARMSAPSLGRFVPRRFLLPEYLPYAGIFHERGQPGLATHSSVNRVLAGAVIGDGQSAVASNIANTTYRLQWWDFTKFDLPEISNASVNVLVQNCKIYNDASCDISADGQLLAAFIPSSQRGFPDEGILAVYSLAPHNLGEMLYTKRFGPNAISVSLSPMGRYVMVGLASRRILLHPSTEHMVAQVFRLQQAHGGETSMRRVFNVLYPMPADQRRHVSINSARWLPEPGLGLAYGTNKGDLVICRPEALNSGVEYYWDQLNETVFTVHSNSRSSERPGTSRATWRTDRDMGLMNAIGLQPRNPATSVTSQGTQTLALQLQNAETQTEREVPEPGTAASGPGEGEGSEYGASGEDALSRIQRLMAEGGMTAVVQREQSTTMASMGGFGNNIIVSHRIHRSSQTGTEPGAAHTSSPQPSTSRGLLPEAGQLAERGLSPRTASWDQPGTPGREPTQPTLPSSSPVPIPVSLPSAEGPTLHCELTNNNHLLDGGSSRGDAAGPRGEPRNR
UniProt P63168: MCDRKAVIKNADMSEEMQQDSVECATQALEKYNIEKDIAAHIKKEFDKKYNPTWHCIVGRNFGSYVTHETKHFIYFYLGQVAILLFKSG
UniProt Q14457: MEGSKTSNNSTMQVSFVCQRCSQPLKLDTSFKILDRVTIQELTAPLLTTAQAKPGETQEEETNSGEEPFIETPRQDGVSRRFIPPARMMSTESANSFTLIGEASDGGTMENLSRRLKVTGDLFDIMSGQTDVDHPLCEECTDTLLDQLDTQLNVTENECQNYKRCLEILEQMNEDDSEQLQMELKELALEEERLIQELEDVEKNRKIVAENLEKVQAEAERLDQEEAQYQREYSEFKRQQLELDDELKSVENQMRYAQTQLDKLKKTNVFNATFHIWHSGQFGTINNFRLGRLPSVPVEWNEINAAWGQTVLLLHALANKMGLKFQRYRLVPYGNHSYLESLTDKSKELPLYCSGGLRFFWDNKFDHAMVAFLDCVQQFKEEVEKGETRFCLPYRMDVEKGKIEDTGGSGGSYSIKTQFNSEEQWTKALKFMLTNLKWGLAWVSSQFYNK

For assay [1], the target named is T1, Ambra1 (mouse, endogenous) (mouse) (UniProt A2AH22).
T1 sequence (looked up): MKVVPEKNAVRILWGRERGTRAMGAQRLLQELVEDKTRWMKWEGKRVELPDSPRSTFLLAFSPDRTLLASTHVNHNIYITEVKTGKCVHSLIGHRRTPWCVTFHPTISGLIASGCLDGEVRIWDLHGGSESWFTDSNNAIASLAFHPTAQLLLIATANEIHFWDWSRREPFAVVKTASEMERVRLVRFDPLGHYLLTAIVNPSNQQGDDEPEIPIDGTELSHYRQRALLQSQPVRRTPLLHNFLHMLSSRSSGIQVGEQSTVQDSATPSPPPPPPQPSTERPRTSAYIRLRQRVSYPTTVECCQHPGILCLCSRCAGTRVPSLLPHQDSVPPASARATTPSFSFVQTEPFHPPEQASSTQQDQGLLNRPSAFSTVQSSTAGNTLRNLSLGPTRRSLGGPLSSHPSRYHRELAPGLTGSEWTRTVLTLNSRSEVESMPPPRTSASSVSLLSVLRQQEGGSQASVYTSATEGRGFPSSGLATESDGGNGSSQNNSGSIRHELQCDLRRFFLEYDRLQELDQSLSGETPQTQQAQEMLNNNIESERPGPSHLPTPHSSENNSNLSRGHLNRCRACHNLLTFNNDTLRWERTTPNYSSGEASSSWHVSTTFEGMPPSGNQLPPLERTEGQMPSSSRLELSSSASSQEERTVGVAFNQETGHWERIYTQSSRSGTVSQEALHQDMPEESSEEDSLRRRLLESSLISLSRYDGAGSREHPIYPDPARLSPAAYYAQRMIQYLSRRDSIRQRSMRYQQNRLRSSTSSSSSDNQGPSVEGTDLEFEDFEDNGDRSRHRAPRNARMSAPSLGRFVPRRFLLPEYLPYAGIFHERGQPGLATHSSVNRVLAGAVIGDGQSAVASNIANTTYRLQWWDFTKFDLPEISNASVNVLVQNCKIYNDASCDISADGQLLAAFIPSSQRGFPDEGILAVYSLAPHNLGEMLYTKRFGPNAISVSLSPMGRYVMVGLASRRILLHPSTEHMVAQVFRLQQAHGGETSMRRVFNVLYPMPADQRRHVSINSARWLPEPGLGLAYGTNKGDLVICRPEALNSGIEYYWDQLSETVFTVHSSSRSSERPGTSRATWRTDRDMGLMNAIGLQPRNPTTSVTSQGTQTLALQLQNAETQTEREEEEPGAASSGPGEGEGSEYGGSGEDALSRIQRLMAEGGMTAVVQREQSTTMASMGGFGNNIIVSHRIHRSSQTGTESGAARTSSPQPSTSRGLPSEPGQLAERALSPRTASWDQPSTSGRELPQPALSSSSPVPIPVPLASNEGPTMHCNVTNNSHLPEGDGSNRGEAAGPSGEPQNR
As to the kind of experiment: legend of FIG. 1b: IP Ambra1, WB Dlc1, E14.5 embryos.

Assay [2] concerns the target T1, Ambra1 (mouse, endogenous) (mouse). Kind of assay: co-immunoprecipitation (IP Ambra1, WB Dlc1) from mouse E14.5 embryo extracts.
Assay [3] deals with AMBRA1 full length (human, wild type) (UniProt Q9C0C7). As to the kind of experiment: co-immunoprecipitation (IP FLAG-BECLIN 1, WB AMBRA1) from 2F cells.

As to “Dlc1 (mouse, endogenous) (from UniProt P63168 1-89)”, the binding entry in assay [1] and in assay [2] was “binds” each time.

In the case of BECLIN 1 (from UniProt Q14457 1-450), in assay [3], the binding entry is recorded as “binds”.

(Values after patent publication US20110281804A1, “PEPTIDIC AND PEPTIDOMIMETIC COMPOUNDS FOR REGULATING AUTOPHAGY” (FONDAZIONE SANTA LUCIA, priority 2008, published 2011).)
